Reference: PubChem BioAssay AID1259415 (National Center for Advancing Translational Sciences (NCATS), 2018)
About 18,000 (4.4%) of roughly 410,000 compounds were called active. The inconclusive results got no clear call from the source; some entries with a clear call stand among them for comparison. Cut-off read from the data, not from the text of the source: active = activity change below about -60%; inconclusive = no clear call, values can overlap the other calls; inactive = above about -39%.

Assay: qHTS Assay for inhibitors of the human cytomegalovirus (HCMV)
Settings: HFF cells, HCMV-luciferase reporter, 72 h; at 57.5 µM; stronger effect = lower value
Procedure, shortened: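 Steps: HFFs plated, 16 h 37C; compounds added; HCMV-luciferase added to MOI 1 PFU/cell; 72 h 37C; OneGlo reagent, 5 min room temperature; luminescence read, normalized to controls.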
% is set by controls: 0 for no effect and ±100 for the full control effect.

| Structure (SMILES) | activity change, negative = inhibition |
| --- | --- |
| COc1cccc(NC(=O)CN(C)C(=O)c2ccc(-c3ccc(Cl)cc3)o2)c1 | inconclusive: -41.5% |
| Cc1nn(Cc2ccc(Cl)c(Cl)c2)c(C)c1NC(=O)c1cn(-c2ccccc2)nc1-c1ccccc1 | inactive: -28% |
| Cc1ccc2oc(C(=O)Nc3nonc3C)c(C)c2c1 | inactive: -25.1% |
| COc1cc(O)c(C(CC(=O)N2CCOCC2)c2ccc3c(c2)OCO3)c(OC)c1 (stereo not drawn) | inconclusive: -42.1% |
| COc1ccccc1CNC(=O)CCc1c(C)nn(-c2ccc(N3CCCCC3)nn2)c1C | inactive: -32.3% |
| COc1ccc(NC(=O)C(C2CC2)n2c(=O)c(-c3cc4ccccc4[nH]3)nc3ccccc32)cc1 (stereo not drawn) | active: -96.7% |
| Cc1ccc(NC(=O)CSc2nnc3ccc(-c4ccncc4)nn23)cc1 | inconclusive: -59.8% |
| COc1ccc(S(=O)(=O)N2C[C@@H](O)COC[C@@H]3O[C@H](CC(=O)NCCCN4CCOCC4)CC[C@H]32)cc1 | active: -74.2% |
| Cc1cc(C)cc(OCC(=O)Nc2cccc(-c3nnc(-c4ccco4)o3)c2)c1 | inactive: 61.9% |
| O=C(NNc1c2ccccc2nc2ccccc12)c1cccc(O)c1 | active: -60.8% |
| COc1ccc(Cc2nc(-c3ccncc3)no2)cc1 | inactive: 1.61% |
| COc1cc(C(=O)N/N=C/c2ccc(OC(=O)c3ccccc3Cl)cc2)ccc1O | inconclusive: -52.7% |
| O=C(Nc1ccccc1)N1CCN(c2nc3ccccc3s2)CC1 | inconclusive: -43.1% |
| COc1ccc(NC(=O)C2CCCC2)cn1 | inactive: -15.2% |
| COc1ccc(Br)c(Cn2c(C)c(C(=O)NCc3ccccc3C(F)(F)F)sc2=O)c1 | inconclusive: -56.5% |
| O=c1cc(Nc2ccc3c(c2)OCCO3)[nH]c(=O)n1-c1ccc(Br)cc1 | inconclusive: -46.7% |
| O=Cc1ccc(N2CCCC2)o1 | inconclusive: -43.5% |
| COc1cccc(CNC(=O)COC(=O)c2cc([N+](=O)[O-])ccc2N2CCCC2)c1 | inconclusive: -47% |
| CCCOC(=O)c1ccc(NC(=O)COC(=O)C2CCN(c3ccc(C(F)(F)F)cn3)CC2)cc1 | inactive: 61.8% |
| COc1ccc(C2CCCN2C(=S)Nc2cccc(Cl)c2)cc1OC (stereo not drawn) | inconclusive: -42.1% |
| CSc1ncc2c(n1)-c1ccccc1N(Cc1ccccc1)S2(=O)=O | inactive: 9.43% |
| CCC(=O)Nc1ccc(CCC(=O)N2CCCC2)cc1 | inactive: -3.88% |
| CCn1c(=O)c2cc(C(=O)N(C)c3ccccc3F)sc2c2ccccc21 | inconclusive: -54.8% |
| O=C(Nc1ccc([N+](=O)[O-])cc1)Nc1ccc(Cl)cc1F | active: -99.4% |
| CSc1nc(O)c(N=Nc2ccc(F)cc2F)c(=O)[nH]1 | inconclusive: -52% |
| Cc1cccc(C)c1NC(=O)C1(C)CSCC(=O)N1C1CCN(Cc2ccccc2)CC1 (stereo not drawn) | active: -68.3% |
| CCOC(=O)C1CCN(C(=O)c2c(C)oc3c2C(=O)c2ccccc2C3=O)CC1 | inactive: -2.06% |

Of the compounds above, 6 have four or more nitrogen atoms.

| Structure (SMILES) | activity change, negative = inhibition |
| --- | --- |
| Cc1nn(Cc2ccc(Cl)c(Cl)c2)c(C)c1NC(=O)c1cn(-c2ccccc2)nc1-c1ccccc1 | inactive: -28% |
| COc1ccccc1CNC(=O)CCc1c(C)nn(-c2ccc(N3CCCCC3)nn2)c1C | inactive: -32.3% |
| COc1ccc(NC(=O)C(C2CC2)n2c(=O)c(-c3cc4ccccc4[nH]3)nc3ccccc32)cc1 (stereo not drawn) | active: -96.7% |
| Cc1ccc(NC(=O)CSc2nnc3ccc(-c4ccncc4)nn23)cc1 | inconclusive: -59.8% |
| O=C(Nc1ccccc1)N1CCN(c2nc3ccccc3s2)CC1 | inconclusive: -43.1% |
| CSc1nc(O)c(N=Nc2ccc(F)cc2F)c(=O)[nH]1 | inconclusive: -52% |

(list continues)

| Structure (SMILES) | activity change, negative = inhibition |
| --- | --- |
| COc1ccc(-c2nc3sc(CCNS(=O)(=O)c4ccccc4)c(C)n3n2)cc1 | inconclusive: -40.8% |
| CN(c1ccc(C(=O)N2CCN(Cc3ccccc3)CC2)cc1)S(=O)(=O)c1ccccc1 | inconclusive: -51.1% |
| COc1ccc(C)cc1NC(=O)N(Cc1ccc2c(c1)OCO2)C1CCN(Cc2ccccc2)CC1 | inconclusive: -45.4% |
| CCOC(=O)c1ccc(NC(=O)CC(=O)Nc2ccc3nc4n(c(=O)c3c2)CCCCC4)cc1 | inconclusive: -43% |
| CC(C)C(=O)N=c1sc2cc(F)cc(F)c2n1C | inconclusive: -45% |
| O=C1OC[C@H]2CCCN2C(=O)[C@@H](CC(=O)N(CCO)Cc2ccccc2)C/C=C\CC[C@@H]1Cc1ccc(F)cc1 | inconclusive: -51.3% |
| Cc1ccc2c(Cl)cc(Cl)c(OCC(=O)Nc3cccc(S(=O)(=O)N(C)C)c3)c2n1 | inactive: 28.3% |
| CC(C)C[C@H](NC(=O)N1CC(=O)Nc2ccccc21)C(=O)N[C@@H](Cc1ccccc1)C(=O)O | inactive: -6.33% |
| O=C(CSc1n[nH]c(-c2cc(Cl)ccc2Cl)n1)NCCN1C(=O)CSC1=O | inconclusive: -55.8% |
| CCCOc1ccc(C(C)=O)cc1Cc1c(O)nc(SC)[nH]c1=O | inactive: 19.4% |
| CCOc1cc(N2CCOCC2)c(OCC)cc1NC(=O)COC(=O)c1cc(C)cc(C)c1 | inconclusive: -45.6% |
| O=C(CCCN1C(=O)/C(=C\c2cccs2)SC1=S)Nc1cc([N+](=O)[O-])ccc1O | inconclusive: -51.6% |
| O=C(c1cn(-c2ccccc2)nc1-c1cccs1)N1CCN(c2ccc(F)cc2)CC1 | inactive: -21.4% |
| O=C(O)CCCn1ccc2cc(S(=O)(=O)N3CCCC3)ccc21 | inactive: -1.17% |
| CN(C)C(=O)O/N=C(\N)COc1ccc(C(C)(C)C)cc1 | active: -100% |
| O=C(Nc1nc2ccccc2s1)c1cc(-c2ccco2)nc2ccccc12 | inconclusive: -48.3% |
| Cc1ccc(S(=O)(=O)Nc2ccc3nc(-c4cccc(Cl)c4)oc3c2)cc1 | inconclusive: -57.1% |
| CCC(=O)N1CCc2cc(S(=O)(=O)NC(Cc3ccccc3)C(=O)O)ccc21 (stereo not drawn) | inconclusive: -55.8% |
| O=C(COC(=O)c1ccccc1C(=O)c1ccc(Cl)cc1)NCCc1ccccc1 | active: -76.3% |
| CN(C(=O)c1cnc(N2CCN(c3ncccn3)CC2)c2ccccc12)c1ccc(Cl)cc1 | inconclusive: -46.5% |
| C=C1CCC[C@]2(C)C[C@H]3OC(=O)C(CN4CC(C)OC(C)C4)[C@H]3C[C@@H]12 (stereo partly drawn) | inconclusive: -52% |
| Cc1cc2c(cc1C)N(Cc1ccc(Cl)cc1)C1=NCCCN12 | inconclusive: -49.8% |
| Cc1ccc(NC(=O)c2ccc(NCCCN3CCOCC3)c([N+](=O)[O-])c2)cc1Cl | inconclusive: -51.7% |
| Clc1ccc(-c2ncc3ccccn23)c(Cl)c1 | inconclusive: -49.7% |
| O=c1cc(CN2CCN(Cc3ccccc3)CC2)c2cc(O)ccc2o1 | inconclusive: -48.9% |
| O=C1NC(=O)N(Cc2ccco2)C(=O)/C1=C/c1cccn1CCOc1ccccc1Cl | inactive: 25.5% |

At a glance, some entries already given.

| Structure (SMILES) | activity change, negative = inhibition |
| --- | --- |
| Cc1ccc(S(=O)(=O)Nc2ccc3nc(-c4cccc(Cl)c4)oc3c2)cc1 | inconclusive: -57.1% |
| CCC(=O)N1CCc2cc(S(=O)(=O)NC(Cc3ccccc3)C(=O)O)ccc21 (stereo not drawn) | inconclusive: -55.8% |
